Test results published in publication doi:10.1101/2022.09.20.508746.
These are yes or no findings as the source states them, for the method shown. In cells and extracts the contact can be indirect. Some binding calls cover weakened binding; strength is not graded here. For some assays here: Sequences can lack the tags named with a protein.

Assays:
[1] = target: kinase dead CDKL5 (K42R) fused to a C-terminal 3xFLAG (human) (UniProt O76039); test: co-IP
[2] = target: T1, WT CDKL5 fused to a C-terminal 3xFLAG (human) (UniProt O76039); test: co-IP
T1 sequence: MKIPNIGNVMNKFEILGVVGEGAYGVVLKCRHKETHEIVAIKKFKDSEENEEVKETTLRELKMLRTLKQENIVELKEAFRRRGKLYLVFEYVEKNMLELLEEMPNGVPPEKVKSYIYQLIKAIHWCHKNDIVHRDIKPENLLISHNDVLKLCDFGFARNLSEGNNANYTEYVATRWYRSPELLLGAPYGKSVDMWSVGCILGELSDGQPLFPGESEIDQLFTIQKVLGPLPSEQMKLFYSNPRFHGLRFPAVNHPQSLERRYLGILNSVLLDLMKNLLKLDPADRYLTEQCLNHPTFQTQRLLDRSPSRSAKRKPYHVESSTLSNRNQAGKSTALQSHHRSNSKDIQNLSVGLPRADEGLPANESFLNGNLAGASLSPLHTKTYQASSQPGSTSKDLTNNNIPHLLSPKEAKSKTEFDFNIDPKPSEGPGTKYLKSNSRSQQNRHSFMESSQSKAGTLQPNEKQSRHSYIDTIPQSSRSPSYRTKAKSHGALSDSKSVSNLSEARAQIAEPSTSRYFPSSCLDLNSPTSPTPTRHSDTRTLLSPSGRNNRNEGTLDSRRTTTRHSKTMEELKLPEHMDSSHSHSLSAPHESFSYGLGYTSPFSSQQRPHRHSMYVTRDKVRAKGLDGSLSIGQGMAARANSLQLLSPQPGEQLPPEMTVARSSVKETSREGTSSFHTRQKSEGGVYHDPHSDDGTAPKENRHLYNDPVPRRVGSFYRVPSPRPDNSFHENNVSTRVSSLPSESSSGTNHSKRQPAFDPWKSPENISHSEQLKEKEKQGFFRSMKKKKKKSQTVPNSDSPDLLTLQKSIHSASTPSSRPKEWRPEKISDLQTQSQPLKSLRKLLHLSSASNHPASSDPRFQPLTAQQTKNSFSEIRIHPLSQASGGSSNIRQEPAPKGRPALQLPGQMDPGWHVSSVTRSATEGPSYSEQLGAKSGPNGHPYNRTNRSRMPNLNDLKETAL

**Q.** Which results are given for “p62/sequestosome 1 (SQSTM1), endogenous in HeLa cells (from UniProt Q13501 1-440)”?
**A.** binding [1]: binds; binding [2]: binds
